Measured values published in paper PMC11259696, “Small molecule MarR modulators potentiate metronidazole antibiotic activity in aerobic E. coli by inducing activation by the nitroreductase NfsA” (The Journal of Biological Chemistry, 2024).
Construct, isoform or probe ends are uncertain for at least one entry. Protein sequences can lack the tags named with them.

Target: T1, MarR (His-tagged) (Escherichia coli BW25113) (UniProt P27245)
T1 sequence (looked up, limits assumed): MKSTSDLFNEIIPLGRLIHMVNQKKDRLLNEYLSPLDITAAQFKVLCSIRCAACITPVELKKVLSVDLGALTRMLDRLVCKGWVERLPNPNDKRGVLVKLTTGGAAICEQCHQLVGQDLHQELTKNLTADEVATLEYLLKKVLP
Test: EMSA
Conditions: 5 uM MarR, 100 nM DNA, no BDM76441; EMSA: His-MarR 5 uM preincubated with BDM76441 15 min 25 C, then 100 nM marO 15 min 25 C (10 ul); 6% DNA retardation gel, 0.5x TBE, 150 V 45 min; binding buffer; recombinant protein; protein details: His tag (pET15b, NdeI/XhoI); label: none (ethidium bromide stain); probe letters rebuilt from the primers and the genome

“GTCAATTCATTCATTTGACTTATACTTGCCTGGGCAATATTATCCCCTGCAACTAATTACTTGCCAGGGCAACTAATGTGAAAAGTACCAGCGATCTGTTCAATGAAATTATTCCATTGGGTCGCTTAATCCATATGGTTAATCAGAAGAAAGATCGCCTGCTTAACGAGTATCTGTCTCCGCTGGATATTACCGCGGCACAGTTTAAGGTGCTCTGCTCTATCCGCTGCGCGGCGTGTATTACTCCGGTTGAACTGAAAAAGGTATTGTCGGTCGACCTGGGAGCACTGACCCGTATGCTGGATCGCCTGGTCTGTAAAGGCTGGGTGGAAAGGTTGCCGAACCCGAATGACAAGCGCGGCGTACTGGTAAAACTTACCACCGGCGGCGCGGCAATATGTGAACAATGCCATCAATTAGTTGGCCAGGACCTGCACCAAGAATTAACAAAAAACCTGACGGCGGACGAAGTGGCAACACTTGAGTATTTGCTTAAGA (double strand) [marO (marRAB promoter PCR fragment)]”: binds.
